This assay addresses T1, Cleft Lip and Palate Transmembrane protein 1 (CLPTM1), human, native, in cells (human) (UniProt O96005).
T1 sequence: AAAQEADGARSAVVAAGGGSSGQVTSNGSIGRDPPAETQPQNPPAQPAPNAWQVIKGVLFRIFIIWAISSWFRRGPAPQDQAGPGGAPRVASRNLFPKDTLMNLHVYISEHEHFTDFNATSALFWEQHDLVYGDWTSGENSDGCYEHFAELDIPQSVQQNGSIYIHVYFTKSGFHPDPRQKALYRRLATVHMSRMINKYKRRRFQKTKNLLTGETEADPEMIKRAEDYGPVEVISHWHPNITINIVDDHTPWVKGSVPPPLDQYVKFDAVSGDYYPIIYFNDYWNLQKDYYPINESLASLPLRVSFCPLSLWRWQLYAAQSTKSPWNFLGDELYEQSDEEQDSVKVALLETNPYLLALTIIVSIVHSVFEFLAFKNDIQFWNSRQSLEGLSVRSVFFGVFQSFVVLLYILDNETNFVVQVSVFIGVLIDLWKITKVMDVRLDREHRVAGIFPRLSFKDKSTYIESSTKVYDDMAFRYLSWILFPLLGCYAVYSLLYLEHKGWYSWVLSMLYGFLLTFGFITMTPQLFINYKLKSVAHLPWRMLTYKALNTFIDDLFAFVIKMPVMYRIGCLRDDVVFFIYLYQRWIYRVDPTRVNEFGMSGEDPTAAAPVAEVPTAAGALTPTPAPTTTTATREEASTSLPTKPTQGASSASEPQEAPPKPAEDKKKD
In words: flow cytometry on membrane-permeabilised O-876 cells expressing native CLPTM1, 10x dilution series, PE-labelled secondary antibody. Background: In flow cytometry, cells or beads pass a laser one at a time.

No constants are given. Whether binding was seen depends on the method and setting. Some entries that bind do so weakly or less than the wild type.

B1: Mouse monoclonal anti-CLPTM1 antibody 7G12 (antibody, V domains shown)
VH: QVQLQQSGTELVRPGTSVKVSCKASGYAFTNYLIEWVKQRPGQGLEWIGVINPGSGGTRYNEKFKGKATLTADKSSTTAHMQLSSLTSDDSAVYCARWGGNYSGYAMDYWGQGTSVTVSS
VL: QIVLTQSPVIMSASPGEKVTITCSASSSVSYMHWFQQKPGTSPKLWIYSTSNLASGVPARFSGSGSGTSYSLTISRMEAEDAATYYCQQRSSYPPTFGAGTKL
With B1, the binding result is given as “binds”.

(Values after patent US20190256592A1.)
